Test results published in PMC4770243.
Results are given in words; binding and its absence hold for the method and conditions named. Binding calls can cover weak binding; strength is not graded here.

Chains of the proteins cited; added tags and fusions are not shown. Lines headed by an entry give the natural chain unless they say otherwise; changes in a name come on top.
UniProt Q97YA4: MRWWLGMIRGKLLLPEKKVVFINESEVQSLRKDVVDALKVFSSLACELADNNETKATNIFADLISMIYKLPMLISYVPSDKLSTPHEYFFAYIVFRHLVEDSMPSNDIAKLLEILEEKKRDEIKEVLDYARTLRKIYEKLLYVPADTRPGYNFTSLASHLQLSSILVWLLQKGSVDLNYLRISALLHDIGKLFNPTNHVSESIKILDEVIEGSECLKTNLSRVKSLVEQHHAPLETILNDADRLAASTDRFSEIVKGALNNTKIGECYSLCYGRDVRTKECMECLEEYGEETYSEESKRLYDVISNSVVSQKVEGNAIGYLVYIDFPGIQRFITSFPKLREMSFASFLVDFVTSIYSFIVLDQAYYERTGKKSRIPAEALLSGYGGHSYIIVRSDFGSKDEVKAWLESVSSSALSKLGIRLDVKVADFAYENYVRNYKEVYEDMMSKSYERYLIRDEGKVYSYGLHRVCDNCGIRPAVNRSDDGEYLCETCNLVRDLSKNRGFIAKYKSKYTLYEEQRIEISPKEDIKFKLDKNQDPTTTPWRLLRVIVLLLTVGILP

molecular target: Sso1428, the large subunit (Csm1/Cas10) of the Sso-IIID complex (Sulfolobus solfataricus) (UniProt Q97YA4); assay: SEC; individually purified subunits Sso1424, Sso1425, Sso1426, Sso1427, Sso1428, Sso1430, Sso1431, Sso1432 and a defined crRNA mixed at 3:1:4:1:1:1:1:1:1 in 20 mM MES pH 6.0, 100 mM NaCl, 0.1 mg/ml BSA, 2 mM MgCl2, 45°C for 30 min; reconstituted complex purified by size exclusion chromatography; both purified

binding	Binder
binds	Sso1432, subunit of the Sso-IIID complex (protein, UniProt Q97YA0 1-252) MVIQVFRLNFRLRTGFRVGGGQEVGDNVIRQLRIGVEGVMIPASSWKGMFRRVSEIVLNSEDHFEEHSKKEVDTRTINALLKSDEKFRRIAISKVGKEVITQNGINVDKLDSESLSDLRRIYNEYNCPIERLYGSNYFAGGITISDSVIPNASIMERTHVTIERKSKKASEKHLFSEEIIDAEKIEVKVIVRNEFELWKNSLKLLREIGYFIGGSKSRGIGYIVLDEKESEYAVINNFSETPKFSELKRYLS
binds	Sso1427, Cas7-like subunit of the Sso-IIID complex (protein, UniProt Q97YA5 1-275) MQRSPIRRSNYTPRNEKGLEGVIELQLNVVSDYLHVGSGKYDVEVMRSVSDVKRLVEDYLSGGNKRIPNNVDQYFSMVAFLMVRNKDNVVIPGSTIKGMVRSRLELSVPGSCYIVTGHSTSSSAVYKRIFNPDPNRGSDRFDVNKFPQVCPVCDLLGNMGLASRVSLSDFVMTSGKVDYVNVKGRDYEVVTKGSIFAGKVLYKSLKPVEIGMLLYGFGFVKDCNGSKVMLLGRFKFSDKRFGRVKFSLKTPIADCNKLVSDFVKQFNPRYINEEW
binds	Sso1431 (Csm4/Cas5-like), subunit of the Sso-IIID complex (protein, UniProt Q97YA1 1-304) MILIKLKVKGYITTQMRRIRNYYFSITNYIPSTTLRGAILAEYYNQTGKIDENFYVSPAYPIKTAPAHYFSPAKERKGDEFIEVKRILEKKEKEFEANKPIEEIMKLEIDGKHPKPKIGSLITYEGETDKENKYREFSSKSIIQMHVAIDKTSISSYKGMLFAYEYKEFDEMWAIASDSEVIDTVKRIKIGRGKNRGNKVVDVEKVREVSLDQSKGLLYCLSPCIGSLFGKTFFKAKYIIGDKSIYSGWFTVDSFSGQKPVFETLREGSLVYVESFSNEKSLMPAGLNFMLRISDLSSILNKVS
binds	Sso1430, subunit of the Sso-IIID complex (protein, UniProt Q97YA2 1-206) MIPIKVSMRNLSSLTIAGGSTISSIDIPLNPLGVPPSTIKGTMRTAVHNLLPNGYTSCGEVEPESIREAHKNGVCDVCKLFGYPDSLTGCFTIDVSKTDYRTSYITRVSIDDKTQRAKEGSLFTQQIILPNSDISFTVYYNCNDERLFKLLLYSILDLRYWRLGRNTMIDVKVNNVEEICKSVKCDEEINGILNQLSRYLWEAENK

Second part, the binder before the results:

Binder	binding
Sso1425, Cas7-like subunit of the Sso-IIID complex (protein, UniProt Q97YA7 1-250) MKMSCMDLDVITTVVKIEGKLRNETLLRVGKGKTQDFAEATDNPIIKYRDRPLIPGSSLKGAFRSLVESYTKSLNDSKYYVCDLDDNSCVSCEEKKKDNGIVEGRYCIPCILFGFKDLASRVYILDAIAEKYSISQRTMVAINRVFGGQMPGHLYTLDYVDPGSEFSFMMMIYNLNLIEGEKDWKAKSVEALKFLLATLVREGIFVGARKSVGYGLIKLVDAKVSLYKAPDHLVSPVIVKKLEEVIGTNG	binds
Sso1424, small subunit of the Sso-IIID complex (protein, UniProt Q97YA8 1-139) MRVKHYIQREFNYSVSSQDLLDIATRIAISAIKPKPKSNKPEPYVDSSTINSLLSFLQSRRNVNELLLYIMRQAGRDEIDEETGKLLLASLKDRELKDAVNLLGYVKWVYDTLTGLKVNYNNVKGVKTFKELVNILSKV	binds
Sso1426, Cas7-like subunit of the Sso-IIID complex (protein, UniProt Q97YA6 1-281) MVLMVNYTFIDKRVIKRTTMIEGDVETVSPLKIGGGKDNFDPSSLAKDSILKDVEGRPIIPGSSWKGIFRSTGERILRLRNIEVCSGIGKDYCLNNNRKERDFNSALKENVDQALEIFWDYTCLNCKVFGTMSVIGAVRFLDSLPISYSLNTRSMIAISRTEGAVARRALVTVEYVDVGSKFSFKMMGYNLPNYAIGYLITIMKNIHDGFTQVGGHKSRGFGFVKFGKVKFTDLGEKRIGDEDIQVKDVGDLVEGNGDEFFGRMKPFMEAFNNAKIPYPKK	binds
